The text below walks through data of PubChem BioAssay AID2685 (National Center for Advancing Translational Sciences (NCATS), 2010).

Some of the results follow. Shown are side measurements of this screen, not its main read-out; they come without a call. The list favours compounds with an active or inconclusive main result. Potencies come from curve fits of mixed quality, noted in brackets.

The nature of this assay: qHTS Assay for Lipid Storage Modulators in Drosophila S3 Cells.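 On cell number change: cells counted by Cell Tracker Red CMTPX staining in the red channel.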 The conditions noted are these: BODIPY lipid droplet fluorescence, 18-24 h; for cell number change: measured here: cell count max response, cells fed with added oleic acid. In short, it runs like this: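 Drosophila S3 cells got compounds at several concentrations plus oleic acid (400 uM solution). Laser-scanning cytometry with 488 nm excitation read lipid droplets at 500-530 nm and cells at 575-640 nm. Percent activity was relative to 20 uM Triacsin C.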
A general note: qHTS replaces the single test concentration by a dilution series.

Setting [1] is: measured here: lipid fluorescence (Fed channel) AC50, cells fed with added oleic acid.
Setting [2] is: measured here: cell number channel AC50, cells fed with added oleic acid.

Take `O=C1CN(C(=O)COC(=O)c2ccccc2O)c2ccccc2N1`: the cell number change turned out to be 17.3%. Further, under setting [1], the AC50 – broadly, the concentration giving half of the maximal activity seen – is 0.82 µM [falling, full curve, poor fit].
Consider `CSc1ccccc1C(=O)Nc1cccc(N(C)S(C)(=O)=O)c1`, for which the cell number change was 11.5%. The AC50 under setting [1] is 16.4 µM [rising, partial curve, poor fit].
On to `COC(=O)c1sc(S(=O)(=O)NCC(=O)O)c(C(=O)OC)c1C`, for which the cell number change is -8.65%. Further, under setting [2], the AC50 was 0.103 µM [falling, full curve, poor fit].
Take `CC(NC(=O)COC(=O)CCNC(=O)c1ccco1)C12CC3CC(CC(C3)C1)C2` (centres undefined): the cell number change is -10.4%.
In the case of `CC(C)Cc1ccc(/C=C/C(=O)NC2CC2)cc1`, the AC50 under setting [1] was 6.51 µM [rising, single point].
As to `O=C(Nc1nc(-c2ccc([N+](=O)[O-])cc2)cs1)c1c(F)cccc1F`, the cell number change was -14.2%. The AC50 under setting [1] is 0.461 µM [rising, partial curve].
As to `CCc1[nH]c(=O)c(C#N)c2c1CCCC2`, the cell number change is -3.38%. Further, under setting [1], the AC50 is 6.51 µM [falling, single point].
On to `CCNC(=O)c1cccc(NC(=O)c2cc(C3CC3)nc3c2cnn3C(C)C)c1`, for which the cell number change was found to be 24.9%.
For the compound `CC(=O)c1cc(C#N)c(SCc2ccc(F)cc2)nc1C`, the cell number change came to 32.9%. In addition, the AC50 under setting [2] is 6.51 µM [falling, single point]. Besides, the AC50 under setting [1] was 29.1 µM [rising, single point].
For `O=S(=O)(NC1CCCCC1)c1ccc(-c2csnn2)s1`, the cell number change was 57.9%. For the same compound, the AC50 under setting [2] was 3.66 µM [rising, full curve]. The concentration at half-maximal activity (AC50) under setting [1] is 0.731 µM [rising, full curve, poor fit].
For `Nc1cccc(CCc2ccncc2)c1`, the cell number change is -16.3%. The AC50 under setting [1] is 29.1 µM [falling, single point].
As to `CN(C(=O)CSc1nnc(C2CC2)n1-c1ccccc1)C1CCS(=O)(=O)C1` (centres undefined), the cell number change worked out at 11.4%. Besides, the half-maximal activity concentration (AC50) under setting [1] is 18.4 µM [rising, partial curve].
For `COCCn1c(=S)[nH]c2cc(C(=O)N3CC(C)CC(C)C3)ccc2c1=O` (centres undefined), the cell number change was -1.53%. In addition, the AC50 under setting [1] was 9.2 µM [falling, partial curve, poor fit].
As to `COc1cccc(OC)c1OCCCOc1cccc2cccnc12`, the cell number change was found to be 7.01%. Under setting [1], the AC50 was 23.1 µM [falling, single point].
Regarding `COc1ccc(OC)c(CN2CCN(C(=O)c3cccs3)CC2)c1`, the cell number change amounted to 34.2%. In addition, the AC50 under setting [2] is 6.51 µM [rising, single point].
Consider `C[C@H]1CN=C(N(C)C)N1CC1CCCCC1`, for which the cell number change was -12%. The concentration at half-maximal activity (AC50) under setting [1] was 0.00461 µM [rising, full curve, poor fit].
Take `CC(C)Cn1c(N)c(C(=O)COC(=O)c2cccc(F)c2)c(=O)n(C)c1=O`: the cell number change amounted to 32.6%. Moreover, the AC50 under setting [2] was 29.1 µM [rising, single point].
For `CCOc1ccc(NC(=O)[C@@H](NC(=O)c2ccccc2)[C@@H](C)CC)cc1`, the cell number change was -5.65%. Under setting [2], the AC50 was 6.51 µM [rising, single point].
Regarding `Fc1ccc(/C=N/Nc2nnnn2-c2ccccc2)cc1`, under setting [1], the AC50 is 5.17 µM [falling, partial curve, poor fit].
In the case of `CCc1ccc(CNC(=O)C2CCN(S(=O)(=O)N3CCC(C)CC3)CC2)cc1`, the cell number change was 17.6%. For the same compound, the AC50 under setting [1] is 29.1 µM [falling, partial curve, poor fit].
With `CCCCN(C)C(=O)C1CCN(c2ccc(S(=O)(=O)N3CCOCC3)cc2[N+](=O)[O-])CC1`, the cell number change was -16.2%. In addition, under setting [1], the AC50 is 5.17 µM [falling, partial curve, poor fit].
Regarding `Clc1ccccc1-c1nc(-c2ccncc2)no1`, the cell number change is -36.9%. The AC50 under setting [1] is 1.84 µM [falling, partial curve].
Consider `O=C(CCS(=O)(=O)c1ccc(F)cc1)Nc1nnc(-c2ccc(F)cc2)o1`, for which the cell number change was found to be 20%.
As for `COc1ccc2oc(C(=O)OCC(=O)N(C)c3c(N)n(Cc4ccccc4)c(=O)[nH]c3=O)c(C)c2c1`, the cell number change was -62.8%. The AC50 under setting [2] is 29.1 µM [falling, single point]. For the same compound, the AC50 under setting [1] is 0.461 µM [falling, single point].
Consider `C/C(=C\C(=O)OCC(=O)NCc1ccccc1)C(=O)OCC(=O)NCc1ccccc1`, for which the cell number change was -9.78%. Moreover, under setting [1], the half-maximal activity concentration (AC50) is 0.0092 µM [falling, full curve, poor fit].
As to `Cc1ccnc(NC(=O)CCC(=O)N(CC(=O)NC2CCCCC2)Cc2ccc3c(c2)OCO3)c1`, the cell number change is -15.7%. The AC50 under setting [1] was 0.58 µM [rising, partial curve].
On to `Cc1noc(C)c1COC(=O)Cn1c(C)nc2ccccc21`, for which the cell number change is -29.7%.
`COc1ccc(/C=C2\C(=O)ON=C2c2ccccc2)cc1OC`: the cell number change amounted to 24%.
As to `Cc1ccc(N2CS(=O)(=O)/C(=C/N(C)C)C2=O)cc1`, under setting [1], the concentration at half-maximal activity (AC50) is 20.6 µM [falling, single point].
As for `N#Cc1ccc(C(=O)OCC(=O)N2CCCCCC2)cc1`, the cell number change was 4.39%. For the same compound, under setting [1], the AC50 is 11.6 µM [falling, partial curve, poor fit].
Regarding `CCOc1ccc(N2CC(C(=O)OC)CC2=O)cc1` (centres undefined), the cell number change is -25.8%. Besides, under setting [2], the AC50 is 0.651 µM [falling, full curve, poor fit]. Moreover, under setting [1], the AC50 was 0.651 µM [falling, full curve].
For `CC(=C1C(=O)c2ccccc2C1=O)N1CCN(c2ccc(F)cc2)CC1`, the AC50 runs as follows: under setting [2], 0.58 µM [falling, full curve]; under setting [1], 6.51 µM [falling, partial curve].
For the compound `CC1CC1C(=O)OCC(=O)NCc1ccccc1Cl` (centres undefined), under setting [1], the concentration at half-maximal activity (AC50) was 3.66 µM [falling, full curve].
Regarding `CC1C(c2ccccc2)C(C#N)(C#N)C2(C#N)C(=O)NC1(N)C2C` (centres undefined), the cell number change amounted to 15.2%. Moreover, the AC50 under setting [1] was 0.146 µM [falling, full curve, poor fit].
For `NC(=O)C1CCN(C(=O)C2c3ccccc3C(=O)N3CCc4ccccc4C23)CC1` (centres undefined), the cell number change was determined as 10.5%. In addition, the concentration at half-maximal activity (AC50) under setting [1] was 16.4 µM [rising, single point].
In the case of `O=C(CCN1C(=O)C2C3C=CC(C3)C2C1=O)N1CCN(c2ccccc2F)CC1` (centres undefined), the cell number change came to 19.5%. The half-maximal activity concentration (AC50) under setting [1] was 5.8 µM [rising, full curve].
In the case of `NC(=O)CCNC(=O)c1ccc(Cl)cc1`, the cell number change came out at 11.4%. Further, the AC50 under setting [1] is 29.1 µM [falling, partial curve].
Regarding `Cc1ccc(S(=O)(=O)NC(=O)Nc2ccc(N(C)C)cc2)cc1`, the cell number change was -54.3%. For the same compound, under setting [2], the AC50 was 29.1 µM [falling, single point]. Further, the AC50 under setting [1] was 29.1 µM [falling, single point].
For the compound `Cc1ccc(S(=O)(=O)N(C)C)cc1NC(=O)c1cc(-c2ccco2)nc2ccccc12`, the cell number change was 28.1%. Besides, the AC50 under setting [1] is 29.1 µM [rising, single point].
